From article PMC11006458 come the findings set out here.

Chains of the proteins cited; added tags and fusions are not shown.
UniProt P01106: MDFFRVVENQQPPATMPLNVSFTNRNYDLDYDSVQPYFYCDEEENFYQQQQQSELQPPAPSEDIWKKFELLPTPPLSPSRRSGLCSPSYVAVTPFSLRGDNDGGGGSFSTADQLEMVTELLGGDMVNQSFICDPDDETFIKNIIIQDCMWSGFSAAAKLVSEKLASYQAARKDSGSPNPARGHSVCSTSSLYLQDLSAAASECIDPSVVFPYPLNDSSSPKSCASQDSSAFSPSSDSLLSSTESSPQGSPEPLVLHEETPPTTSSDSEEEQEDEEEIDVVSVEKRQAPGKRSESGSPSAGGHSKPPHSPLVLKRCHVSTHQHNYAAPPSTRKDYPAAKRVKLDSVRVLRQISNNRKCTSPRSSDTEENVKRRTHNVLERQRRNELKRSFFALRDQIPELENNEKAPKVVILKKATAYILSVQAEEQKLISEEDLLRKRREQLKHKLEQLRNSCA

Test [1] addresses T1, Flag-USP36 (UniProt Q9P275).
T1 sequence: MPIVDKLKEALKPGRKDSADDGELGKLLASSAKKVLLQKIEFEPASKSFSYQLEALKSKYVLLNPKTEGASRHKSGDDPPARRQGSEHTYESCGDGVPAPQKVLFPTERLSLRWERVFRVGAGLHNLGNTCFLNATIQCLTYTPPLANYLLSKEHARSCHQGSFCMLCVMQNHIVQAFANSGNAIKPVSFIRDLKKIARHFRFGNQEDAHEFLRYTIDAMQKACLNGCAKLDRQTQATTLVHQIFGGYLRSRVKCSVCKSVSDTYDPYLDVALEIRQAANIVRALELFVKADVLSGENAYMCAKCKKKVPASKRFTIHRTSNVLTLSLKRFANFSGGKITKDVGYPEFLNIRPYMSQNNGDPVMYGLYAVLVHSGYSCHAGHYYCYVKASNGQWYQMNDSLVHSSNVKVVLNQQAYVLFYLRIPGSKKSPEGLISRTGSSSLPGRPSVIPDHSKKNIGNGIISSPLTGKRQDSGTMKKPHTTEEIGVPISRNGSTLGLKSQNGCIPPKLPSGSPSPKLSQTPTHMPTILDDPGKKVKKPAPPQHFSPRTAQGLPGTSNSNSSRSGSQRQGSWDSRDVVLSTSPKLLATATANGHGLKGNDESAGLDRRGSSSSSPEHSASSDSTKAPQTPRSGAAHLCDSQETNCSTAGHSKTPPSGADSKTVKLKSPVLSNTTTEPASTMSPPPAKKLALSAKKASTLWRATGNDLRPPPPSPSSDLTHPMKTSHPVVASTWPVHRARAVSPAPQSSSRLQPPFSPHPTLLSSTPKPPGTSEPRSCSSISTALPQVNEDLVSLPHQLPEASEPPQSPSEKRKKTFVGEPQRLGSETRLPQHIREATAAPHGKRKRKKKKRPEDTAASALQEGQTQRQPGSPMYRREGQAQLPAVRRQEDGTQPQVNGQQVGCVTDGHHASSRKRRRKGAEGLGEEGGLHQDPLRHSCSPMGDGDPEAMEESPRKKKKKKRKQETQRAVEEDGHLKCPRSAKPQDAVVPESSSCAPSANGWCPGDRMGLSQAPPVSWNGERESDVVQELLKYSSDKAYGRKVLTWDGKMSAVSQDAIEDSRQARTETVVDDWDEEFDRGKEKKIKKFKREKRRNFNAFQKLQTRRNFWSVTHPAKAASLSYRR
Kind of test: co-IP; HCT116 cells transfected with Flag-USP36 or HA-c-Myc or their combination; lysate incubated with bead-conjugated FLAG or HA overnight at 4°C; western blot.

In test [2] the target is T2, Ubiquitin-specific protease 36 (human (endogenous in HCT116)) (UniProt Q9P275).
T2 sequence: T1 sequence
Kind of test: co-IP; endogenous proteins; HCT116 lysate incubated with anti-USP36 or anti-c-Myc antibody overnight at 4°C; western blot.

Test [3] addresses c-Myc (human (endogenous in HCT116)) (UniProt P01106). The test is described as above.
Test [4] concerns the target HA-c-Myc (UniProt P01106). Kind of test: co-IP; HCT116 cells transfected with Flag-USP36 or HA-c-Myc or their combination; lysate incubated with bead-conjugated FLAG or HA overnight at 4°C; western blot.

No constants are given. Whether binding was seen depends on the method and setting. Binding seen in cells or lysates may run through a third protein. Some entries that bind do so weakly or less than the wild type. For some of these results: Tags and fused reporters may be left off the sequences shown.

Regarding HA-c-Myc (from UniProt P01106 1-454), the binding entry in test [1] is given as “binds”. For the molecule c-Myc (from UniProt P01106 1-454), the binding result in test [2] was “binds”.

B1: Ubiquitin-specific protease 36 (enzyme, UniProt Q9P275 1-1123)
chain: T1 sequence
With B1, the binding result in test [3] is recorded as “binds”.

B2: Flag-USP36 (enzyme, UniProt Q9P275 1-1123)
chain: T1 sequence
With B2, in test [4], the binding entry is reported as “binds”.
